Drawing on PubChem BioAssay AID2685 (National Center for Advancing Translational Sciences (NCATS), 2010), this text covers cell number change and AC50 for 41 compounds.

Some of the results follow. Further columns of the screen follow, without active or inactive calls. Most of these compounds were active or inconclusive in the main read-out, so they are no random draw. The note in brackets gives the kind of curve behind each potency; many fits are weak.

This assay can be described thus: qHTS Assay for Lipid Storage Modulators in Drosophila S3 Cells.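 For cell number change: cells counted by Cell Tracker Red CMTPX staining in the red channel.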 The settings on record: BODIPY lipid droplet fluorescence, 18-24 h; for cell number change: measured here: cell count max response, cells fed with added oleic acid. In outline: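 Laser-scanning cytometry quantifies lipid droplet accumulation (500–530 nm total intensity; droplet/cell object ratio) in oleic acid-fed (400 uM added) Drosophila S3 cells treated with a concentration series. 20 uM Triacsin C defined 100% inhibition.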

Setting [1] is: measured here: cell number channel AC50, cells fed with added oleic acid.
[2] abbreviates: measured here: lipid fluorescence (Fed channel) AC50, cells fed with added oleic acid.

Consider `O=C(c1cc2c(s1)-c1ccccc1S(=O)(=O)C2)N1CCCC1`, for which the cell number change was 19%. Also, the AC50 under setting [1] was 0.082 µM [rising, full curve, poor fit].

`CC(C)c1nnc(NC(=O)CSc2nnc(NC(=O)c3c(F)cccc3F)s2)s1`: the cell number change was determined as 7.67%. Moreover, under setting [1], the AC50 was 0.651 µM [falling, single point]. Moreover, the AC50 under setting [2] was 0.58 µM [falling, single point].

Take `O=C(CCCN1C(=O)c2ccccc2C1=O)Nc1cccc(S(=O)(=O)NC2=NCCC2)c1`: the cell number change is 137%. In addition, the AC50 under setting [1] was 13 µM [rising, partial curve].

Regarding `O=C(COC(=O)c1ccc(Cl)nc1)c1ccc2c(c1)OCCO2`, the cell number change was -20.9%. Also, under setting [1], the AC50 was 0.103 µM [falling, full curve, poor fit].

With `CCSc1ccccc1C(=O)NCc1ccc2c(c1)OCO2`, the cell number change was 6.76%.

Consider `CCOC(=O)N/N=C/C(Cl)=C/c1ccccc1`, for which the cell number change came out at 27.7%.

Regarding `COc1cc(NC(=O)CSc2nc(C)c(C)c(C)n2)cc(OC)c1`, the cell number change turned out to be 9.28%.

Turning to `Nc1nc(NC(=O)c2ccco2)nn1-c1ccccc1`, the cell number change was determined as 3.64%. Also, the AC50 under setting [2] is 0.116 µM [falling, full curve].

Regarding `Cc1nc(-c2ccccc2)sc1-c1nc(-c2cccnc2)ncc1S(=O)(=O)c1ccccc1`, the cell number change worked out at 12.2%.

Turning to `CC(C)[C@H](NC(=O)N1c2ccccc2NC(=O)[C@@H]1C(C)C)C(=O)N[C@@H](C(=O)O)c1ccccc1`, the AC50 under setting [2] is 29.1 µM [rising, single point].

In the case of `O=C(COC(=O)c1ccc(NC(=O)C2CC=CCC2C(=O)O)cc1)c1ccccc1` (stereo not drawn), the cell number change was -9.15%.

On to `COc1ccc(-n2nc([N+](=O)[O-])c(=NCCC3=CCCCC3)n2O)cc1`, for which the cell number change came out at 18.6%. Moreover, the AC50 under setting [2] is 1.16 µM [rising, single point].

Take `Cc1oc(-c2ccccc2F)nc1CS(=O)(=O)CC(=O)NC1CCCC1`: under setting [2], the AC50 was 20.6 µM [rising, single point].

Turning to `CCOc1cc(C=C(C#N)C#N)ccc1Oc1ccc([N+](=O)[O-])cn1`, the cell number change is -31.4%. In addition, the AC50 under setting [1] was 14.6 µM [falling, single point]. Under setting [2], the AC50 is 13 µM [falling, single point].

Turning to `COC(=O)c1sccc1NC(=O)c1ccc(C#N)cc1`, the cell number change came out at 0.236%. Under setting [2], the AC50 was 0.731 µM [falling, single point].

Regarding `COc1ccc(S(=O)(=O)Nc2ccccc2C(=O)N2CCCC2)cc1C`, the cell number change was -9.91%. For the same compound, the AC50 under setting [2] is 2.91 µM [rising, single point].

With `Cc1cc(NS(=O)(=O)Cc2ccccc2)cc(C)c1OCC(=O)N1CCOCC1`, the cell number change is -14.5%. Under setting [2], the AC50 is 29.1 µM [falling, partial curve, poor fit].

`Cc1ccc2nc(C3CCCCC3)[nH]c2c1`: the cell number change is -7.14%. In addition, the AC50 under setting [2] was 29.1 µM [falling, single point].

Consider `CCN(CC)c1ccc(NC(=O)COc2ccccc2C#N)cc1S(=O)(=O)Nc1ccccc1OC`, for which the cell number change worked out at 6.14%.

Take `Cc1ccc(N2C(=O)C(O)(C(F)(F)F)C3=C2CC(C)(C)CC3=O)cc1` (stereo not drawn): the cell number change was -8.28%. Besides, under setting [2], the AC50 is 0.731 µM [falling, partial curve, poor fit].

On to `CC(C)Cn1c(-c2ccco2)n[nH]c1=S`, for which the cell number change amounted to 15.5%. The AC50 under setting [2] was 0.092 µM [rising, full curve, poor fit].

In the case of `Cc1nn(C)c(Cl)c1S(=O)(=O)N[C@@H](c1ccccc1)[C@]1(C)C[C@H]1[C@@H](C)C(=O)Nc1ccc2ccccc2c1`, the cell number change is 18.9%. Besides, the AC50 under setting [2] is 16.4 µM [rising, single point].

With `CCCC(=O)NC(c1ccccc1OC)c1ccc2cccnc2c1O` (stereo not drawn), the cell number change is -33.5%.

Consider `Cc1cc(NC(=O)CN2C(=O)NC(C)(CCc3ccccc3)C2=O)no1` (stereo not drawn), for which the cell number change is -5.71%. Also, the AC50 under setting [2] is 1.3 µM [falling, full curve].

In the case of `C=CCn1cnnc1SCC(=O)Nc1cccnc1Cl`, the cell number change came out at 10.8%.

Turning to `Cc1cccc2[nH]c3c(=O)n(CCN4CCNCC4)cnc3c12`, the cell number change was -8.68%. Moreover, under setting [2], the AC50 was 0.731 µM [rising, full curve, poor fit].

For `Cc1cccc(N2CCN(C(=O)CCC(=O)N3CC(C)Oc4ccccc43)CC2)c1C` (stereo not drawn), the cell number change was determined as 13.3%.

In the case of `S=C(Nc1ccc(CN2CCCCC2)cc1)Nc1cccc(Cl)c1Cl`, the cell number change is 4.95%. Also, under setting [1], the AC50 is 6.51 µM [rising, single point]. Under setting [2], the AC50 was 29.1 µM [rising, single point].

With `COc1ccc(NC(=O)NCc2cccnc2)c(OC)c1`, the cell number change was found to be 21.8%. For the same compound, under setting [2], the AC50 is 20.6 µM [rising, partial curve].

Regarding `CC1Nc2ccc(C(=O)NC3CCCCC3)cc2NC1=O` (stereo not drawn), the AC50 under setting [2] was 29.1 µM [falling, single point].

Turning to `COc1ccccc1C(=O)NCC(=O)N/N=C/c1ccc2c(c1)OCO2`, the cell number change turned out to be 13.8%.

On to `CC1CC(C)(C)NC(=S)N1CCCC(=O)Nc1ccc(F)c(F)c1` (stereo not drawn), for which the cell number change worked out at 60.2%. For the same compound, under setting [1], the AC50 was 16.4 µM [rising, partial curve]. For the same compound, the AC50 under setting [2] is 29.1 µM [rising, single point].

For `Cc1cc(C)c(C(=O)CSc2nnc(-c3ccccc3Br)o2)cc1C`, the cell number change came out at 135%. The AC50 under setting [1] was 0.164 µM [rising, full curve, poor fit]. Further, under setting [2], the AC50 is 0.103 µM [rising, full curve, poor fit].

In the case of `COc1cc(/C=N\NC(=O)c2ccc(-c3ccccc3)cc2)cc(OC)c1O`, the cell number change is -68.5%. For the same compound, under setting [1], the AC50 was 20.6 µM [falling, single point].

In the case of `C/C(=N\NC(=O)COc1ccc([N+](=O)[O-])cc1)C(C)(C)C`, the cell number change is 19.8%. For the same compound, the AC50 under setting [1] was 2.91 µM [rising, full curve, poor fit].

Consider `Cc1ccccc1C(=O)NC(C)c1ccc2c(c1)CCCC2` (stereo not drawn), for which the cell number change worked out at 8.62%.

For the compound `O=C(N/N=C/C(Cl)=C/c1ccc([N+](=O)[O-])cc1)C(=O)Nc1cccc(C(=O)O)c1`, the cell number change was -10.8%. Further, the AC50 under setting [2] was 0.146 µM [falling, full curve, poor fit].

As to `COc1cc(OC)cc(C(=O)N[C@H](C(=O)OCC(N)=O)C(C)C)c1`, the cell number change was -45.5%. Besides, under setting [1], the AC50 is 18.4 µM [falling, single point].

Consider `O=C(CSc1nnc(CN2CCCCC2)n1-c1ccccc1)c1ccc2c(c1)OCO2`, for which the cell number change amounted to 24.3%. The half-maximal activity concentration (AC50) under setting [2] is 29.1 µM [rising, partial curve, poor fit].

Consider `C/C(CC(=O)Nc1cc(C)ccn1)=N\NC(=O)c1ccncc1`, for which the cell number change was determined as 10.9%.

With `CN1C(=O)/C(=C/c2cn(CC(=O)N3CCCCC3)c3ccccc23)NC1=S`, the cell number change was found to be 45.9%. Under setting [1], the half-maximal activity concentration (AC50) was 25.9 µM [rising, single point]. Further, the AC50 under setting [2] was 29.1 µM [rising, single point].
